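Assay of Toxoplasma gondii numbers, read through their beta-galactosidase reporter with a colour substrate. Concentration: 10 µM. The record gives no direction; the compounds picked for IC50 retests had high values, so higher reads as fewer parasites. About 67,000 compounds were tested under these conditions; 0.38% (about 260) showed 50% or more at least once.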

Values are the deposited “Percent Effect”, in %. The controls that fix the scale are not given in the record; negative values are as filed. The compounds are a random part of those screened.

CC(=O)NCCc1ccc(S(=O)(=O)N(C)C(C)C(C)(C)C)s1 (stereo not given) read 7.588%. Cc1ccc2c(c1)[C@@H](CC(=O)N1CCN(C)CC1)CCO2 read 1.451%. COc1ccc2oc(C(C)NC(=O)NC3CCN(C)CC3)c(C)c2c1 (stereo not given) read -12.88%. For CC(C)NC(=O)C1CN(C(=O)Cc2cccc(F)c2)CC12CCOCC2 (stereo not given) the result was -6.232%. O=C(CN1CCOCC1)Nc1ccc(C(F)(F)F)cc1Cl gave -9.352%. For Cc1cnc(N2CCC3(CC2)CC3CN(C)Cc2cccnc2)nc1.O=C(O)C(F)(F)F.O=C(O)C(F)(F)F (stereo not given) the result was -3.591%.

For Cc1cc(N2CCOC(C(F)(F)F)C2)nc(-c2ccccc2O)n1 (stereo not given) the result was 6.088%. CC(C)(C)c1ccc(C(=O)C2CCCN(C(=O)CNS(C)(=O)=O)C2)cc1 (stereo not given) gave 11.27%. Result for COCC(=O)N1CCC2(CCC2NC(=O)c2ccn(C)c2)CC1 (stereo not given) was 19.8%. Result for CC(O)CNC(=O)CCc1nc2ncccc2[nH]1 (stereo not given) was -4.427%. Result for CCS(=O)(=O)c1ccc2c(c1)OCCO2 was 12.59%. Result for Cc1occc1C(=O)N1CCC2(CC1)CC(c1cccnc1)C(=O)N2C (stereo not given) was 3.098%.

With COc1cccc(C(CO)NC(=O)Cc2ccc(F)c(Br)c2)c1 (stereo not given) the screen gave -4.337%. For Cc1cc(CNC(C)Cn2cncn2)ccc1Br (stereo not given) the result was 20.4%. Result for CN(Cc1ccccc1)CC(O)Cn1cnc2c(cnn2C)c1=O (stereo not given) was -19.92%. COc1cccnc1NC(=O)c1ccc(COCC(F)(F)F)cc1 read -3.315%. For CCOC(=O)N(C)C1CCN(Cc2ccsc2)CC1 the result was 0.649%. O=S(=O)(NC1=NCN(CCc2cccs2)CN1)c1ccc(Cl)cc1 gave -2.784%.

Result for O=C(COc1ccc(Cl)cc1)N1CCN(c2cnccn2)CC1 was -0.6344%. For Cc1cc(CNC(=O)NCCOc2ccc(F)c(F)c2)on1 the result was -2.908%. For CCN(CC1CN(Cc2cccnc2)CCO1)c1cccnn1 (stereo not given) the result was -1.628%. CN(C)C(=O)c1cncnc1-c1ccc(CNC(=O)C2CCCO2)cc1 (stereo not given) gave 29.35%. With COC1CCCOC12CCN(C(=O)NCc1ccco1)CC2 (stereo not given) the screen gave 15.18%. For Cc1[nH]nc(CCC(=O)N2CCCC(OCc3cccnc3)C2)c1C (stereo not given) the result was -7.169%.

For COc1cc(C(=O)NCCS(=O)(=O)N(C)C)c2ccccc2n1 the result was 9.373%. Result for CN(CCCNC(=O)Nc1ccc(C#N)cc1)CC(F)(F)F was 0.9259%. With CN(C)C(=O)N1CCC2(CC1)CN(CC1CC1)CC21CCNC1=O.O=C(O)C(F)(F)F (stereo not given) the screen gave -23.89%. CS(=O)(=O)c1ccc(NC(=O)NC2(c3cccc(F)c3)CC2)cc1 read -10.81%. CN(C)Cc1cn2c(n1)CN(C(=O)Cc1ccsc1)CC2.O=C(O)C(F)(F)F gave -8.455%. CCS(=O)(=O)CCN1CCN(C2CCC(C(C)C)CC2)CC1 (stereo not given) gave 1.408%.

COc1ccc2c(C)c(C(=O)NC3CCOCC3)oc2c1 gave -12.77%. Result for O=C(CN1C=Nc2ccccc2S1(=O)=O)NCc1ccccc1 was -10.73%. Result for Cc1nonc1CNC(=O)C(C)Oc1ccccc1F (stereo not given) was -1.11%. Cl.OC1CCN(Cc2c(C3CCCNC3)[nH]c3ncccc23)CC1 (stereo not given) read 2.114%. Cc1cc(C2CCCN(CCS(=O)(=O)c3ccccc3)C2)n[nH]1 (stereo not given) read -13.29%. CC(=O)Nc1nc(C(=O)N2CCCC(n3nc(C)nc3C)C2)cs1 (stereo not given) gave -20.92%.

With Cn1cc(N2CCCC(Nc3ccc4c(c3)CCCO4)C2=O)cn1 (stereo not given) the screen gave -1.848%. CS(=O)(=O)NCCC1CCCN(Cc2ccccc2F)C1 (stereo not given) gave -5.025%. NC(=O)NCC1CCCCN1C(=O)c1ccc(Br)s1 (stereo not given) gave -8.167%. Cn1ccnc1C(O)(CCNCc1ccc(Cl)o1)C(F)(F)F (stereo not given) gave 0.5682%. For CCc1c(C)nc(N)nc1N1CCCC(c2nc(CCOC)no2)C1 (stereo not given) the result was 35.7%. Cc1nc(C2CCCN(C(=O)c3c[nH]c(C(C)C)n3)C2)no1 (stereo not given) gave -13.3%.

For CCN1CC2(CCN(CCOc3ccc(F)cc3)CC2)CC1=O the result was 13.55%. With COc1c(C2CCCN2C(=O)c2cccnc2N(C)C)c(C)nn1C (stereo not given) the screen gave 8.381%. N#Cc1cccc(Cl)c1NCCCc1nc(=O)[nH][nH]1 gave 2.169%.

Some entries from above, unchanged:

structure	percent effect
NC(=O)NCC1CCCCN1C(=O)c1ccc(Br)s1 (stereo not given)	-8.167
CN(Cc1ccccc1)CC(O)Cn1cnc2c(cnn2C)c1=O (stereo not given)	-19.92

Data taken from ChEMBL document CHEMBL3988442, “University of Dundee, Small-Polar-MMV Screening Library” (2021).